Laboratory results from patent US20210246220A1.
No constants are given. Whether binding was seen depends on the method and setting. Some results given as binding are weak or reduced against the parent protein; the word gives no strength. Blank lines part the entries; values can stand above or below the binder they belong to.

By UniProt entry, the sequences of proteins in these tests, tags left out. Residues count along the entry.
UniProt Q02223, residues 1-54: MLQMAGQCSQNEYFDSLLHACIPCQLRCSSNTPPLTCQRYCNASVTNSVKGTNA

Biological target: BCMA-Fc antigen (UniProt Q02223)
Assay: ELISA; plate coated with 100 ng BCMA-Fc; crushed bacterial supernatant with scFv; mouse anti-HA-tag antibody, then AP-labeled anti-mouse IgG; positive when the absorbance ratio to the control well is greater than 2.1

binding: binds
B1: scFv_20 (scFv, not shown: small tags and cut ends)
scFv: DIQMTQSPSSLSASVGDRVTITCSASQDISNYLNWYQQKPGKAPKLLIYYTSNLHSGVPSRFSGSGSGTDFTLTISSLQPEDFATYYCQQYRKLAWTFGQGTKLEIKRGGGGSGGGGSGGGGSGGGGSQVQLVQSGAEVKKPGSSVKVSCKASGGTFSNYWMHWVRQAPGQGLEWMGATYRGHSDTYYNQKFKGRVTITADKSTSTAYMELSSLRSEDTAVYYCARGSIFNGYDVLDNWGQGTLVTVSS

binding: binds
B2: scFv_46 (scFv, not shown: small tags and cut ends)
scFv: DIQMTQSPSSLSASVGDRVTITCSASQDISNYLNWYQQKPGKAPKLLIYYTSNLHSGVPSRFSGSGSGTDFTLTISSLQPEDFATYYCQQRLTPSPFTFGQGTKLEIKRGGGGSGGGGSGGGGSGGGGSQVQLVQSGAEVKKPGSSVKVSCKASGGTFSNYWMHWVRQAPGQGLEWMGATYRGHSDTYYNQKFKGRVTITADKSTSTAYMELSSLRSEDTAVYYCARNTALLDNWGQGTLVTVSS
